Some entries share one result that the patent states for a list of compounds. At least one structure is not confirmed: it was looked up by name or label, or the drawing left a doubt.
Target: T1, prostasin (Homo sapiens, UniProt Q16651)
T1 construct: eliminate the N-terminal signal peptide domain and light chain and the C-terminal GPI signal domain; honeybee melittin signal peptide (21 aa) (N); made in house; host or cells: Sf9 insect cells, baculovirus (Bac-to-Bac, pFastBac1)
Assay: Assays with transition metals, prostasin activity with Ac-KHYR-acmc
Type: biochemical
Settings: Ac-KHYR-acmc substrate, sub inhibitory metal ion concentrations
Method: Proteolytic activity of the purified prostasin was monitored by measuring the accumulation of the fluorophore 7-amino-3-carbamoylmethyl-4-methylcoumarin (acmc) or 7-amino-4-carbamoylmethylcoumarin (acc) produced by the cleavage of the tetrapeptide substrate Ac-KHYR-acmc, Ac-KHYR-acc or Ac-PRLR-acmc in assay buffer (50 mM Tris-Cl pH 9.0, 0.25% CHAPS; 10 mM CHES pH 9.0 (37° C.), 0.25% CHAPS; or 10 mM Hepes pH 7.4 (37° C.), 0.25% CHAPS) at 37° C. Assays were run in 96 or 384-well black microtiter plates. Data was collected with a Gemini XS plate reader (Molecular Devices) at λex=380 nm and λem=450 nm.

Amino acid sequences for entries named in this document (tags omitted). Residues count along the entry.
UniProt Q16651, 45-322 limits assumed: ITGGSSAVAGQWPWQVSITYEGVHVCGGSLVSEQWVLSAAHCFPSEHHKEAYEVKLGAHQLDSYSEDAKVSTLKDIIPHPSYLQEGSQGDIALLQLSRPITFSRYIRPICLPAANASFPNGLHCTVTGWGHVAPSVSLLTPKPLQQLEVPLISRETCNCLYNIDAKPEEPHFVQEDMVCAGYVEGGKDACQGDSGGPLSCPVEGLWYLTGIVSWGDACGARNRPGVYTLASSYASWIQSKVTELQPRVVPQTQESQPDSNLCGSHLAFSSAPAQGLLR

## [Cu+2] [copper]
  enhancement effect: increase of enzymatic activity: up to 10 fold
